PubChem BioAssay AID1224826, NIAID, 2016

Aim: 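Regulators of Tlr4 signalling leading to Tnf-alpha expression in macrophages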 (primary screen)
Cell system: RAW264.7 G9 macrophages from mouse bearing reporters for p65 (GFP) and the Tnf promoter (mCherry)
Reagents: siRNA pool against mouse genes, 100 nM
Time to read-out: 16 h of LPS stimulation, after 2 days of siRNA transfection
Challenge: bacterial lipopolysaccharide (Salmonella minnesota R595), 10 ng/ml
Measurement: 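Nuclear mCherry signal of the Tnf promoter reporter measured by imaging after background removal, scaled to each plate median and turned into robust z-scores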
Reading the numbers: Tnf reporter robust z-score: higher = stronger Tnf promoter reporter signal after LPS
Call rule: 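a well counts as active at a score of -1.3 or below (Tlr4 knock-down control median) or above 3 (raised signal); controls and wells holding fewer than 50 cells are excluded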
Meaning of the calls: active = Tnf reporter clearly lowered or raised; inactive = no clear change in Tnf reporter
In all, the deposit lists about 17,000 reagents; shown is an unselected part. Of all reagents, about 1,110 (6.6%) are marked active. 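Active means lowered or raised reporter signal; replicate intensities are raw and not normalised per plate.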 A number with no mark means an inactive call. Further read-outs or replicates are left out here.

Against Tnfsf18, the values are Tnf reporter robust z-score -0.48; fewer than 50 cells in well enough cells in well.
Epx gave Tnf reporter robust z-score -0.1; fewer than 50 cells in well enough cells in well.
Or2f1b gave Tnf reporter robust z-score -1.63 (active); fewer than 50 cells in well enough cells in well.
Knock-down of Dcdc5 came out at: Tnf reporter robust z-score 0.97; fewer than 50 cells in well enough cells in well.
Tm7sf2 showed Tnf reporter robust z-score 0.11; fewer than 50 cells in well enough cells in well.
After knock-down of Brix1, the screen gave Tnf reporter robust z-score -0.65; fewer than 50 cells in well enough cells in well.
Igfbp7 showed Tnf reporter robust z-score -0.96; fewer than 50 cells in well enough cells in well.
With knock-down of Fiz1 the results were Tnf reporter robust z-score -0.89; fewer than 50 cells in well enough cells in well.
Against Prkn, the values are Tnf reporter robust z-score 0.69; fewer than 50 cells in well enough cells in well.
Depletion of Cav2 came out at: Tnf reporter robust z-score -0.04; fewer than 50 cells in well enough cells in well.
Glrx gave Tnf reporter robust z-score -0.77; fewer than 50 cells in well enough cells in well.
After knock-down of Gins3, the screen gave Tnf reporter robust z-score -0.46; fewer than 50 cells in well enough cells in well.
With knock-down of Slc1a7, the screen gave Tnf reporter robust z-score 1.92; fewer than 50 cells in well enough cells in well.
Knock-down of Cst6 came out at: Tnf reporter robust z-score -0.52; fewer than 50 cells in well enough cells in well.
With knock-down of Fgf10, the record shows Tnf reporter robust z-score -1.09; fewer than 50 cells in well enough cells in well.
For Emx2, the entry reads Tnf reporter robust z-score 0.19; fewer than 50 cells in well enough cells in well.
Pax2 scored Tnf reporter robust z-score -0.76; fewer than 50 cells in well enough cells in well.
Irak3 scored Tnf reporter robust z-score 0.72; fewer than 50 cells in well enough cells in well.
After knock-down of Gatd3a, the record shows Tnf reporter robust z-score -0.64; fewer than 50 cells in well enough cells in well.
Knock-down of Zfpm1 resulted in: Tnf reporter robust z-score -1.07; fewer than 50 cells in well enough cells in well.
With knock-down of Nefm, the record shows Tnf reporter robust z-score -1.44 (active); fewer than 50 cells in well enough cells in well.
Krt222 scored Tnf reporter robust z-score 0.02; fewer than 50 cells in well enough cells in well.
After knock-down of Elmo1, the screen gave Tnf reporter robust z-score -0.65; fewer than 50 cells in well enough cells in well.
Myo1c showed Tnf reporter robust z-score -1.11; fewer than 50 cells in well enough cells in well.
Silencing of Fcgr1 gave: Tnf reporter robust z-score -0.86; fewer than 50 cells in well enough cells in well.
Cep97 scored Tnf reporter robust z-score -0.66; fewer than 50 cells in well enough cells in well.
Mrgprb5 scored Tnf reporter robust z-score 0.54; fewer than 50 cells in well enough cells in well.

Part of the list above in another layout:
Tm7sf2
- Tnf reporter robust z-score: 0.11
- fewer than 50 cells in well: enough cells in well

Brix1
- Tnf reporter robust z-score: -0.65
- fewer than 50 cells in well: enough cells in well
